Assay results reported in article PMC4829179.
Where a chain is given by its changes, count along the chain named. No constants are given. Whether binding was seen depends on the method and setting. In cells and extracts the contact can be indirect. Some results given as binding are weak or reduced against the parent protein; the word gives no strength. Values belong to the molecule of their own block, whether it stands above or below them.

The chains behind the UniProt entries cited, without tags or fusion partners.
UniProt Q62696: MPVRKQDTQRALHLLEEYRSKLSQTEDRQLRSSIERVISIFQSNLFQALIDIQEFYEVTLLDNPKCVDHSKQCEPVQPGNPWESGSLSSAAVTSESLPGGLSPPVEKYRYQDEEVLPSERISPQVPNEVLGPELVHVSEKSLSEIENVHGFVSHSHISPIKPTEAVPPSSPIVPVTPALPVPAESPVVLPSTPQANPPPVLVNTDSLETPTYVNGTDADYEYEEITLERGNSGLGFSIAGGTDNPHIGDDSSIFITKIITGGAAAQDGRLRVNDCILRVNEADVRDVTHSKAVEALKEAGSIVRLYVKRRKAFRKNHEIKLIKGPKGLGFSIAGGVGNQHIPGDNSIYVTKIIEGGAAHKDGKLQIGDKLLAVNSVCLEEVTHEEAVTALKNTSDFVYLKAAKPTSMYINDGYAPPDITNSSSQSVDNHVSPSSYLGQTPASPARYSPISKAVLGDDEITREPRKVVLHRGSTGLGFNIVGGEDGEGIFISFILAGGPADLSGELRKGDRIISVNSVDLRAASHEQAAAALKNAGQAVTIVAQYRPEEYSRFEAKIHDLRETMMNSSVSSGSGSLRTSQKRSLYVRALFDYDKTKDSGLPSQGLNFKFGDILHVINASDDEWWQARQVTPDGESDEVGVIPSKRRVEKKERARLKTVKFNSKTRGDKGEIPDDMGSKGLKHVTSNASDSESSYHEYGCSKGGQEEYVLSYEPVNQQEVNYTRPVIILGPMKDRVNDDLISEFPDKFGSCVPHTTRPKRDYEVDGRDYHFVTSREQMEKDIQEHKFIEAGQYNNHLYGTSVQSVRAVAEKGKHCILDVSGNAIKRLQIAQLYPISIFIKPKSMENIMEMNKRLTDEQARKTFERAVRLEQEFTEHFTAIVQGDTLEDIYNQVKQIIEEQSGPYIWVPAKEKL
UniProt Q811D0: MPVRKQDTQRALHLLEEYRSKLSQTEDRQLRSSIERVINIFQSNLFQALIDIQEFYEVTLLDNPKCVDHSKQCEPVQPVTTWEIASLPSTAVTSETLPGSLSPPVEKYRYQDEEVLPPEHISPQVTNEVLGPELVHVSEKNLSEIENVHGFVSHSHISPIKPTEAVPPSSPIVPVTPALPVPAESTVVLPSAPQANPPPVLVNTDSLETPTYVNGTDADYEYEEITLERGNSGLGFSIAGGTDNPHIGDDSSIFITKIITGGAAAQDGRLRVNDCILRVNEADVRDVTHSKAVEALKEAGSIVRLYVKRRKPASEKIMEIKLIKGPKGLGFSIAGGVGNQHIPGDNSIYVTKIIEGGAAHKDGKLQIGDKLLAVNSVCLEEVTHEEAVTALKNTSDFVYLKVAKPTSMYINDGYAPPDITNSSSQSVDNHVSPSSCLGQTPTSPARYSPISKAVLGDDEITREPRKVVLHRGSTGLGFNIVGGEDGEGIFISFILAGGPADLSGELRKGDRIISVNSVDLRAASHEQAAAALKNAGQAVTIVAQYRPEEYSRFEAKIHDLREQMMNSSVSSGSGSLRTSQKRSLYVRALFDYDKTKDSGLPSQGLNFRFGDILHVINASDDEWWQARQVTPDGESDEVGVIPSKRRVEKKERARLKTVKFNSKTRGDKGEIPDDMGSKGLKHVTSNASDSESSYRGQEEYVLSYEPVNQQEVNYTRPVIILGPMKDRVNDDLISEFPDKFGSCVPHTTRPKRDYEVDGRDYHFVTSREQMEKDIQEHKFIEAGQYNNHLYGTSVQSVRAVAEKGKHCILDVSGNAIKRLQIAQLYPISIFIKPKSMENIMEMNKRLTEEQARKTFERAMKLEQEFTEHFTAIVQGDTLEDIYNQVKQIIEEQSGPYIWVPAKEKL
UniProt P70618: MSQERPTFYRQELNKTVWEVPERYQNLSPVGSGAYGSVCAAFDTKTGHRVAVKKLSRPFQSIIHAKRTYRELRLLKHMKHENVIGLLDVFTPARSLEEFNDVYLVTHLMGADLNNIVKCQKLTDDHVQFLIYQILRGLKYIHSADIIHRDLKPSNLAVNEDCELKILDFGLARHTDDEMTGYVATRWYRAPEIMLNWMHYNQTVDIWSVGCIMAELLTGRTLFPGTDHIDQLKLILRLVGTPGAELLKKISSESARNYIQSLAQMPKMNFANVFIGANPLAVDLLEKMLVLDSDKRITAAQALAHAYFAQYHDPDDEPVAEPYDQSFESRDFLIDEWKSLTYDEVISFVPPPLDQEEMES

Tests used:
[1] = target: Discs large 1 (Dlg1), rat (rat (endogenous in optic and sciatic nerve)) (UniProt Q62696); assay: pull-down; same pull-down as a2 (GST-Kif13b/MBS bait, P11 rat sciatic nerve lysate), read by the paper for endogenous Dlg1 against another protein of the lysate
[2] = target: Discs large 1 (Dlg1), rat (rat (endogenous in optic and sciatic nerve)) (UniProt Q62696); assay: pull-down; same pull-down as a1 (GST-Kif13b/MBS bait, P11 rat optic nerve lysate), read by the paper for endogenous Dlg1 against another protein of the lysate
[3] = target: Discs large 1 (Dlg1), mouse (mouse (endogenous in sciatic nerve)) (UniProt Q811D0); assay: co-IP; anti-Dlg1 immunoprecipitation from P20 mouse sciatic nerve lysate (1% NP-40, 150 mM NaCl, 50 mM Tris pH 8.0), protein G agarose, mouse IgG as control; immunoblot
[4] = target: Discs large 1 (Dlg1), rat (rat (endogenous in optic and sciatic nerve)) (UniProt Q62696); assay: co-IP; Dlg1 and p38γ co-immunoprecipitated from P11 rat optic nerve lysate; immunoblot

- binding [1]: no binding
- binding [2]: no binding
Molecule: p38α MAPK, rat (from UniProt P70618 1-360)

- binding [3]: binds
B1: p38γ mitogen-activated protein kinase (MAPK), mouse (protein, UniProt O08911 1-367)
chain: MSSPPPARKGFYRQEVTKTAWEVRAVYQDLQPVGSGAYGAVCSAVDSRTGNKVAIKKLYRPFQSELFAKRAYRELRLLKHMRHENVIGLLDVFTPDESLDDFTDFYLVMPFMGTDLGKLMKHETLSEDRIQFLVYQMLKGLKYIHAAGVIHRDLKPGNLAVNEDCELKILDFGLARQADSEMTGYVVTRWYRAPEVILNWMRYTQTVDIWSVGCIMAEMITGKILFKGNDHLDQLKEIMKITGTPPPEFVQKLQSAEAKNYMEGLPELEKKDFASVLTNASPQAVNLLERMLVLDAEQRVTAAEALTHPYFESLRDTEDEPKAQKYDDSFDDVDRTLEEWKRVTYKEVLSFKPPRQLGARVPKETAL

- binding [4]: binds
B2: p38γ mitogen-activated protein kinase (MAPK), rat (protein, UniProt Q63538 1-367)
chain: B1 chain with S98T, I241V, R290K, T307A
